Experimental data: PubChem BioAssay AID1053208 (Peter MacCallum Cancer Centre, 2014)

Purpose: 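Synthetic lethal interactions between gene loss and doxorubicin in osteosarcoma cells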 (primary screen)
Cells: mouse osteosarcoma cells, early-passage culture from an engineered mouse model of fibroblastic bone tumour
Reagent: siRNA pool against mouse genes, 40 nM
Duration: about 120 h (48 h before drug, then 72 h with drug)
Conditions: doxorubicin 100 nM for 72 h, roughly 30-40% inhibitory dose
Measurement: 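Viability read as ATP luminescence after 72 h of 100 nM doxorubicin or none, duplicate wells averaged, scaled to non-targeting siRNA, then expressed as robust z-scores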
Scale: viability z-score with doxorubicin and doxorubicin viability vs non-targeting: higher = more viable cells under doxorubicin; viability z-score without drug: higher = more viable cells with knock-down alone; z-score of drug to no-drug ratio: higher = less drug sensitisation by knock-down
Call rule: 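Called active if knock-down leaves viability unchanged without drug (z within -2 to 2) but lowers it with doxorubicin (z at or under -2)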
The whole screen tested about 17,000 reagents; below is a random part of them. Over the whole deposit, 788 (4.7%) got an active call. 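Calls rest on z-score classes alone; an extra cut-off of viability at most 70% of control was not applied to them.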

gene | combined z-score class | viability z-score with doxorubicin | viability z-score without drug | z-score of drug to no-drug ratio | doxorubicin viability vs non-targeting | outcome
Ctla2a (cytotoxic T lymphocyte-associated protein 2 alpha) | no change with or without drug | 0.45 | 0.34 | 0.34 | 0.98 | inactive
Igfbp1 (insulin-like growth factor binding protein 1) | no change with or without drug | 0.22 | -0.84 | 1.01 | 0.96 | inactive
Gpha2 (glycoprotein hormone alpha 2) | no change with or without drug | 1.12 | 0.17 | 1.12 | 1.04 | inactive
Aifm2 (apoptosis-inducing factor, mitochondrion-associated 2) | no change with or without drug | 1.35 | -0.17 | 1.69 | 1.06 | inactive
Or6n1 (olfactory receptor family 6 subfamily N member 1) | no change with or without drug | 0.45 | 0.34 | 0.34 | 0.98 | inactive
Ccdc7b (coiled-coil domain containing 7B) | no change with or without drug | -0.22 | 0.84 | -0.67 | 0.92 | inactive
Phykpl (5-phosphohydroxy-L-lysine phospholyase) | no change with or without drug | -0.22 | 1.01 | -0.79 | 0.92 | inactive
Hmg20b (high mobility group 20B) | no change with or without drug | -0.34 | -0.51 | 0.11 | 0.91 | inactive
Defa29 (defensin, alpha, 29) | no change with or without drug | 0.56 | 1.52 | -0.34 | 0.99 | inactive
Tgfbr1 (transforming growth factor, beta receptor I) | low cell count without drug only | -1.12 | -2.02 | 0.34 | 0.84 | inactive
Med1 (mediator complex subunit 1) | no change with or without drug | 0.67 | 0.17 | 0.67 | 1 | inactive
Mfn2 (mitofusin 2) | no change with or without drug | -0.67 | -0.51 | -0.22 | 0.88 | inactive
Heph (hephaestin) | no change with or without drug | 0.45 | 1.18 | -0.22 | 0.98 | inactive
Vmn1r200 (vomeronasal 1 receptor 200) | no change with or without drug | -1.01 | 0.17 | -1.01 | 0.85 | inactive
Mtfp1 (mitochondrial fission process 1) | no change with or without drug | -1.57 | -1.18 | -0.79 | 0.8 | inactive
Wdr17 (WD repeat domain 17) | no change with or without drug | 1.24 | 1.35 | 0.45 | 1.05 | inactive
Tuba8 (tubulin, alpha 8) | no change with or without drug | 0.9 | 0.34 | 0.79 | 1.02 | inactive
Zfp212 (Zinc finger protein 212) | no change with or without drug | -1.12 | -0.17 | -1.01 | 0.84 | inactive
Cd37 (CD37 antigen) | no change with or without drug | 1.01 | -0.67 | 1.69 | 1.03 | inactive
Foxp3 (forkhead box P3) | high cell count with doxorubicin only | 2.25 | -0.51 | 2.92 | 1.14 | inactive
Npy6r (neuropeptide Y receptor Y6) | no change with or without drug | -1.35 | 1.35 | -2.02 | 0.82 | inactive
Fanca (Fanconi anemia, complementation group A) | low cell count with doxorubicin only | -2.02 | 0.51 | -2.25 | 0.76 | active
Kcnd2 | no change with or without drug | 0.67 | 1.18 | 0 | 1 | inactive
Hook2 (hook microtubule tethering protein 2) | no change with or without drug | -0.45 | 0.17 | -0.45 | 0.9 | inactive
Tmem216 (transmembrane protein 216) | no change with or without drug | 1.35 | 0.67 | 1.01 | 1.06 | inactive
Hnf4aos (hepatic nuclear factor 4 alpha, opposite strand) | high cell count without drug only | 1.24 | 2.02 | 0 | 1.05 | inactive
Pigw (phosphatidylinositol glycan anchor biosynthesis, class W) | high cell count without drug only | 1.8 | 2.19 | 0.45 | 1.1 | inactive
Hebp2 (heme binding protein 2) | no change with or without drug | 1.8 | 0.67 | 1.46 | 1.1 | inactive
Lce1i (late cornified envelope 1I) | high cell count with doxorubicin only | 2.47 | 0.67 | 2.14 | 1.16 | inactive
Gh (growth hormone) | no change with or without drug | 0.11 | 1.18 | -0.56 | 0.95 | inactive
Map7d3 (MAP7 domain containing 3) | high cell count without drug only | 0.22 | 2.02 | -0.9 | 0.96 | inactive
Gpc2 (glypican 2 cerebroglycan) | no change with or without drug | 0.34 | -0.34 | 0.67 | 0.97 | inactive
Pitpnm1 (phosphatidylinositol transfer protein, membrane-associated 1) | no change with or without drug | 1.69 | -0.67 | 2.47 | 1.09 | inactive
Snx1 (sorting nexin 1) | no change with or without drug | 1.24 | 0.51 | 1.01 | 1.05 | inactive
Galp (galanin-like peptide) | no change with or without drug | 0 | -0.17 | 0.22 | 0.94 | inactive
Or6x1 (olfactory receptor family 6 subfamily X member 1) | no change with or without drug | -0.22 | -0.84 | 0.45 | 0.92 | inactive
Mecr (mitochondrial trans-2-enoyl-CoA reductase) | no change with or without drug | 0.67 | 0.67 | 0.34 | 1 | inactive
Atp6v1f (ATPase, H+ transporting, lysosomal V1 subunit F) | no change with or without drug | -0.67 | 0.84 | -1.12 | 0.88 | inactive
Cep104 (centrosomal protein 104) | no change with or without drug | -1.12 | -0.17 | -1.01 | 0.84 | inactive
1500015L24Rik (RIKEN cDNA 1500015L24 gene) | no change with or without drug | 0.67 | -0.51 | 1.24 | 1 | inactive
Samt3 (spermatogenesis associated multipass transmembrane protein 3) | no change with or without drug | -1.12 | 1.52 | -1.91 | 0.84 | inactive
Rwdd2b (RWD domain containing 2B) | no change with or without drug | -1.12 | -0.84 | -0.56 | 0.84 | inactive
Aebp1 (AE binding protein 1) | no change with or without drug | 1.35 | 0.17 | 1.35 | 1.06 | inactive
Elavl4 (ELAV like RNA binding protein 4) | no change with or without drug | 0 | 1.52 | -0.9 | 0.94 | inactive
Tex56 (testis expressed 56) | high cell count without drug only | 0.67 | 2.19 | -0.56 | 1 | inactive
Ccdc86 (coiled-coil domain containing 86) | no change with or without drug | -0.11 | -0.51 | 0.34 | 0.93 | inactive
Gm2a (GM2 ganglioside activator protein) | no change with or without drug | 0.45 | -0.34 | 0.79 | 0.98 | inactive
Ca11 (carbonic anhydrase 11) | no change with or without drug | -0.9 | 0 | -0.79 | 0.86 | inactive
Atp5po (ATP synthase peripheral stalk subunit OSCP) | no change with or without drug | -0.11 | -0.34 | 0.22 | 0.93 | inactive
A930025A13Rik (RIKEN cDNA A930025A13 gene) | no change with or without drug | 0.34 | -0.51 | 0.79 | 0.97 | inactive
Rps19 (ribosomal protein S19) | low cell count with and without drug | -4.5 | -3.37 | -2.92 | 0.54 | inactive
Elp1 (elongator complex protein 1) | high cell count with doxorubicin only | 2.02 | 0.51 | 1.8 | 1.12 | inactive
Vat1l (vesicle amine transport protein 1 like) | no change with or without drug | 0 | 1.18 | -0.67 | 0.94 | inactive
Agbl1 (ATP/GTP binding protein-like 1) | no change with or without drug | 1.91 | 1.52 | 1.01 | 1.11 | inactive
N4bp3 (NEDD4 binding protein 3) | no change with or without drug | -0.67 | -0.17 | -0.45 | 0.88 | inactive
Prkag3 (protein kinase, AMP-activated, gamma 3 non-catalytic subunit) | high cell count with doxorubicin only | 2.81 | 0.84 | 2.36 | 1.19 | inactive
Xpo6 (exportin 6) | no change with or without drug | 1.69 | -1.01 | 2.7 | 1.09 | inactive
4933436I01Rik (RIKEN cDNA 4933436I01 gene) | no change with or without drug | -0.11 | 0.51 | -0.34 | 0.93 | inactive
Fem1a (fem 1 homolog a) | no change with or without drug | -0.9 | 0 | -0.79 | 0.86 | inactive
Casp1 (caspase 1) | no change with or without drug | -0.45 | 0.34 | -0.56 | 0.9 | inactive
Or1e16 (olfactory receptor family 1 subfamily E member 16) | no change with or without drug | 0.22 | -0.17 | 0.45 | 0.96 | inactive
Als2cl (ALS2 C-terminal like) | no change with or without drug | -0.22 | 0 | -0.11 | 0.92 | inactive
Ankef1 (ankyrin repeat and EF-hand domain containing 1) | no change with or without drug | -1.12 | 0.34 | -1.24 | 0.84 | inactive

Laid out differently: 9 of the entries above
{"gene": "Ccdc7b (coiled-coil domain containing 7B)", "combined z-score class": "no change with or without drug", "viability z-score with doxorubicin": -0.22, "viability z-score without drug": 0.84, "z-score of drug to no-drug ratio": -0.67, "doxorubicin viability vs non-targeting": 0.92, "outcome": "inactive"}
{"gene": "Phykpl (5-phosphohydroxy-L-lysine phospholyase)", "combined z-score class": "no change with or without drug", "viability z-score with doxorubicin": -0.22, "viability z-score without drug": 1.01, "z-score of drug to no-drug ratio": -0.79, "doxorubicin viability vs non-targeting": 0.92, "outcome": "inactive"}
{"gene": "Hmg20b (high mobility group 20B)", "combined z-score class": "no change with or without drug", "viability z-score with doxorubicin": -0.34, "viability z-score without drug": -0.51, "z-score of drug to no-drug ratio": 0.11, "doxorubicin viability vs non-targeting": 0.91, "outcome": "inactive"}
{"gene": "Defa29 (defensin, alpha, 29)", "combined z-score class": "no change with or without drug", "viability z-score with doxorubicin": 0.56, "viability z-score without drug": 1.52, "z-score of drug to no-drug ratio": -0.34, "doxorubicin viability vs non-targeting": 0.99, "outcome": "inactive"}
{"gene": "Tgfbr1 (transforming growth factor, beta receptor I)", "combined z-score class": "low cell count without drug only", "viability z-score with doxorubicin": -1.12, "viability z-score without drug": -2.02, "z-score of drug to no-drug ratio": 0.34, "doxorubicin viability vs non-targeting": 0.84, "outcome": "inactive"}
{"gene": "Med1 (mediator complex subunit 1)", "combined z-score class": "no change with or without drug", "viability z-score with doxorubicin": 0.67, "viability z-score without drug": 0.17, "z-score of drug to no-drug ratio": 0.67, "doxorubicin viability vs non-targeting": 1, "outcome": "inactive"}
{"gene": "Mfn2 (mitofusin 2)", "combined z-score class": "no change with or without drug", "viability z-score with doxorubicin": -0.67, "viability z-score without drug": -0.51, "z-score of drug to no-drug ratio": -0.22, "doxorubicin viability vs non-targeting": 0.88, "outcome": "inactive"}
{"gene": "Heph (hephaestin)", "combined z-score class": "no change with or without drug", "viability z-score with doxorubicin": 0.45, "viability z-score without drug": 1.18, "z-score of drug to no-drug ratio": -0.22, "doxorubicin viability vs non-targeting": 0.98, "outcome": "inactive"}
{"gene": "Vmn1r200 (vomeronasal 1 receptor 200)", "combined z-score class": "no change with or without drug", "viability z-score with doxorubicin": -1.01, "viability z-score without drug": 0.17, "z-score of drug to no-drug ratio": -1.01, "doxorubicin viability vs non-targeting": 0.85, "outcome": "inactive"}
